Data reported in the supplement of paper PMC4604168 (melanoma cell lines).
The other results are listed elsewhere or left out. Single values are uncertain, as repeats are few or missing.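 Cells were imaged in 1,536-well plates, and nuclei stained with an antibody against cleaved PARP were counted against all DNA-stained nuclei to give the apoptosis fraction. Screening doses were chosen to leave most cells alive, and resting and induced cleaved-PARP levels differ strongly between cell lines.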

Experiments:
Experiment in all cases: cleaved PARP positive nuclei fraction relative to DMSO control; melanoma cells; higher = more apoptosis
Details in all cases: library dose: low library concentration; 72 h
[1] = test system: MZ2-MEL
[2] = test system: MeWo
[3] = test system: RPMI7951
[4] = test system: RVH-421
[5] = test system: SkMel28
[6] = test system: SkMel2
[7] = test system: SkMel30
[8] = test system: UACC62
[9] = test system: WM115
[10] = test system: WM1716
[11] = test system: WM1745
[12] = test system: WM3526
[13] = test system: WM3619
[14] = test system: WM451Lu

Row | Compound | cleaved PARP positive nuclei fraction [1] [%] | cleaved PARP positive nuclei fraction [2] [%] | cleaved PARP positive nuclei fraction [3] [%] | cleaved PARP positive nuclei fraction [4] [%] | cleaved PARP positive nuclei fraction [5] [%] | cleaved PARP positive nuclei fraction [6] [%] | cleaved PARP positive nuclei fraction [7] [%] | cleaved PARP positive nuclei fraction [8] [%] | cleaved PARP positive nuclei fraction [9] [%] | cleaved PARP positive nuclei fraction [10] [%] | cleaved PARP positive nuclei fraction [11] [%] | cleaved PARP positive nuclei fraction [12] [%] | cleaved PARP positive nuclei fraction [13] [%] | cleaved PARP positive nuclei fraction [14] [%]
1 | Cn1c(=O)n(-c2ccc(C(C)(C)C#N)cc2)c2c3cc(-c4cnc5ccccc5c4)ccc3ncc21 + Cn1c(Nc2ccc(C(F)(F)F)cc2)nc2cc(Oc3ccnc(-c4ncc(C(F)(F)F)[nH]4)c3)ccc21 [CHIR265] (first compound 0.004 µM, partner dose 0.08 µM) | 205 | 219 | 207 | 237 | 177 | 178 | 176 | 363 | 577 | 101 | 135 | 129 | 205 | 62.4
2 | C[C@@H](Oc1cc(-c2cnn(C3CCNCC3)c2)cnc1N)c1c(Cl)ccc(F)c1Cl [Crizotinib] + Nc1ncn([C@H]2C[C@H](O)[C@@H](CO)O2)c(=O)n1 [decitabine] (first compound 0.2 µM, partner dose 0.1 µM) | 127 | 136 | 63.7 | 77.1 | 78.8 | 72.6 | 38.8 | 34.7 | 44.2 | 36.6 | 90.4 | 43.8 | 81.9 | 294
3 | CS(=O)(=O)CCNCc1ccc(-c2ccc3ncnc(Nc4ccc(OCc5cccc(F)c5)c(Cl)c4)c3c2)o1 [lapatinib] + C#Cc1cccc(Nc2ncnc3cc(OCCOC)c(OCCOC)cc23)c1 [erlotinib] (first compound 0.8 µM, partner dose 0.8 µM) | 156 | 85.7 | 52.5 | 41.4 | 48.2 | 160 | 67.9 | 35.5 | 74.5 | 104 | 94 | 110 | 97.5 | 54.1
4 | CNC(=O)c1cc(Oc2ccc(NC(=O)Nc3ccc(Cl)c(C(F)(F)F)c3)cc2)ccn1 [sorafenib] + Cn1c(Nc2ccc(C(F)(F)F)cc2)nc2cc(Oc3ccnc(-c4ncc(C(F)(F)F)[nH]4)c3)ccc21 [CHIR265] (first compound 0.4 µM, partner dose 0.08 µM) | 42.2 | 133 | 151 | 78 | 47.5 | 216 | 39.9 | 138 | 651 | 39.5 | 134 | 69.5 | 109 | 43.6
5 | Nc1ccn([C@@H]2O[C@H](CO)[C@@H](O)C2(F)F)c(=O)n1 [gemcitabine] + OCc1c[nH]c2ccccc12 [Indole-3-carbinol] (first compound 0.0004 µM, partner dose 0.8 µM) | 61.5 | 106 | 299 | 138 | 63.1 | 99.7 | 92.9 | 36 | 103 | 39.3 | 133 | 23.2 | 173 | 46.8
6 | Nc1ccn([C@@H]2O[C@H](CO)[C@@H](O)C2(F)F)c(=O)n1 [gemcitabine] + Clc1ccc(Nc2nnc(Cc3ccncc3)c3ccccc23)cc1 [vatalanib] (first compound 0.0004 µM, partner dose 2 µM) | 39.5 | 81.8 | 122 | 122 | 97.1 | 193 | 156 | 49.7 | 213 | 94.3 | 155 | 63.1 | 177 | 41
7 | C[C@@H](Oc1cc(-c2cnn(C3CCNCC3)c2)cnc1N)c1c(Cl)ccc(F)c1Cl [Crizotinib] + CN1CCN(c2ccc3nc(-c4c(N)c5c(F)cccc5[nH]c4=O)[nH]c3c2)CC1 [Dovitinib] (first compound 0.2 µM, partner dose 0.1 µM) | 100 | 41.9 | 88.5 | 177 | 85.2 | 64.6 | 60 | 172 | 152 | 56.2 | 95.7 | 78.1 | 75.9 | 87.8
8 | CC(C)C[C@H](NC(=O)[C@H](Cc1ccccc1)NC(=O)c1cnccn1)B(O)O [Bortezomib] + C[C@@H](Oc1cc(-c2cnn(C3CCNCC3)c2)cnc1N)c1c(Cl)ccc(F)c1Cl [Crizotinib] (first compound 0.001 µM, partner dose 0.2 µM) | 128 | 242 | 163 | 110 | 47.8 | 99.8 | 172 | 49.9 | 68.7 | 285 | 278 | 264 | 594 | 44.3
9 | O=C(O)c1ccc2c(c1)nc(Nc1cccc(Cl)c1)c1ccncc12 + C=CCNC1=C2C[C@@H](C)C[C@H](OC)[C@H](O)[C@@H](C)/C=C(\C)[C@H](OC(N)=O)[C@@H](OC)/C=C\C=C(/C)C(=O)NC(=CC1=O)C2=O [Tanespimycin] (first compound 0.4 µM, partner dose 0.002 µM) | 78.5 | 148 | 77.9 | 178 | 75 | 111 | 109 | 177 | 185 | 165 | 99.6 | 110 | 82.7 | 104
10 | Nc1nc(F)nc2c1ncn2[C@@H]1O[C@H](CO)[C@@H](O)[C@@H]1O [fludarabine] + Cn1c(Nc2ccc(C(F)(F)F)cc2)nc2cc(Oc3ccnc(-c4ncc(C(F)(F)F)[nH]4)c3)ccc21 [CHIR265] (first compound 0.2 µM, partner dose 0.08 µM) | 91.9 | 646 | 194 | 344 | 446 | 1000 | 1130 | 245 | 492 | 127 | 116 | 636 | 133 | 161
11 | C=C(c1ccc(C(=O)O)cc1)c1cc2c(cc1C)C(C)(C)CCC2(C)C [Bexarotene] + Nc1cccc2c1CN(C1CCC(=O)NC1=O)C2=O [lenalidomide] (first compound 2 µM, partner dose 1 µM) | 128 | 149 | 124 | 226 | 182 | 79.3 | 67.2 | 34.4 | 36.9 | 78.5 | 104 | 41 | 75.6 | 108
12 | CCCS(=O)(=O)Nc1ccc(F)c(C(=O)c2c[nH]c3ncc(Cl)cc23)c1F + CC(=O)c1c(C)c2cnc(Nc3ccc(N4CCNCC4)cn3)nc2n(C2CCCC2)c1=O [palbociclib] (first compound 0.08 µM, partner dose 0.04 µM) | 78.2 | 77.1 | 59.3 | 225 | 252 | 23.4 | 59.2 | 317 | 101 | 81.7 | 102 | 74.1 | 156 | 58.5
13 | Cn1c(=O)n(-c2ccc(C(C)(C)C#N)cc2)c2c3cc(-c4cnc5ccccc5c4)ccc3ncc21 + CC(=O)c1c(C)c2cnc(Nc3ccc(N4CCNCC4)cn3)nc2n(C2CCCC2)c1=O [palbociclib] (first compound 0.004 µM, partner dose 0.04 µM) | 157 | 42.8 | 163 | 300 | 72.1 | 80.4 | 38.9 | 158 | 78 | 63.8 | 121 | 62.8 | 120 | 97.1
14 | CS(=O)(=O)CCNCc1ccc(-c2ccc3ncnc(Nc4ccc(OCc5cccc(F)c5)c(Cl)c4)c3c2)o1 [lapatinib] + Nc1nc(F)nc2c1ncn2[C@@H]1O[C@H](CO)[C@@H](O)[C@@H]1O [fludarabine] (first compound 0.8 µM, partner dose 0.2 µM) | 143 | 609 | 160 | 105 | 44 | 249 | 1090 | 202 | 130 | 60.7 | 89.2 | 103 | 81.2 | 125
15 | Nc1ncn([C@H]2C[C@H](O)[C@@H](CO)O2)c(=O)n1 [decitabine] + Cn1c(Nc2ccc(C(F)(F)F)cc2)nc2cc(Oc3ccnc(-c4ncc(C(F)(F)F)[nH]4)c3)ccc21 [CHIR265] (first compound 0.1 µM, partner dose 0.08 µM) | 55.8 | 233 | 157 | 320 | 150 | 106 | 155 | 373 | 919 | 120 | 125 | 258 | 111 | 51.1
16 | CC(C)C[C@H](NC(=O)[C@H](Cc1ccccc1)NC(=O)c1cnccn1)B(O)O [Bortezomib] + Nc1ccn([C@@H]2O[C@H](CO)[C@@H](O)C2(F)F)c(=O)n1 [gemcitabine] (first compound 0.001 µM, partner dose 0.0004 µM) | 185 | 132 | 56.5 | 364 | 117 | 115 | 139 | 133 | 63.8 | 522 | 145 | 125 | 577 | 64.8
17 | Nc1ccn([C@@H]2O[C@H](CO)[C@@H](O)C2(F)F)c(=O)n1 [gemcitabine] + Nc1nc(F)nc2c1ncn2[C@@H]1O[C@H](CO)[C@@H](O)[C@@H]1O [fludarabine] (first compound 0.0004 µM, partner dose 0.2 µM) | 117 | 454 | 40.9 | 203 | 199 | 246 | 732 | 45.4 | 178 | 75.2 | 157 | 814 | 181 | 80.2
18 | Nc1nc(F)nc2c1ncn2[C@@H]1O[C@H](CO)[C@@H](O)[C@@H]1O [fludarabine] + COCC[n+]1c2c(n(Cc3cnccn3)c1C)C(=O)c1ccccc1C2=O [YM155] (first compound 0.2 µM, partner dose 0.0004 µM) | 66.2 | 627 | 243 | 59.9 | 107 | 1530 | 1810 | 81.4 | 267 | 126 | 246 | 4990 | 110 | 223
19 | Cn1c(=O)n(-c2ccc(C(C)(C)C#N)cc2)c2c3cc(-c4cnc5ccccc5c4)ccc3ncc21 + Cn1nnc2c(C(N)=O)ncn2c1=O [temozolomide] (first compound 0.004 µM, partner dose 2 µM) | 136 | 77 | 74 | 56.3 | 88.7 | 101 | 116 | 371 | 82.8 | 78.8 | 98.1 | 44.3 | 93.5 | 67.1

Two entries drawn at random from the list so far, as already listed:
Row | Compound | cleaved PARP positive nuclei fraction [1] [%] | cleaved PARP positive nuclei fraction [2] [%] | cleaved PARP positive nuclei fraction [3] [%] | cleaved PARP positive nuclei fraction [4] [%] | cleaved PARP positive nuclei fraction [5] [%] | cleaved PARP positive nuclei fraction [6] [%] | cleaved PARP positive nuclei fraction [7] [%] | cleaved PARP positive nuclei fraction [8] [%] | cleaved PARP positive nuclei fraction [9] [%] | cleaved PARP positive nuclei fraction [10] [%] | cleaved PARP positive nuclei fraction [11] [%] | cleaved PARP positive nuclei fraction [12] [%] | cleaved PARP positive nuclei fraction [13] [%] | cleaved PARP positive nuclei fraction [14] [%]
12 | CCCS(=O)(=O)Nc1ccc(F)c(C(=O)c2c[nH]c3ncc(Cl)cc23)c1F + CC(=O)c1c(C)c2cnc(Nc3ccc(N4CCNCC4)cn3)nc2n(C2CCCC2)c1=O [palbociclib] (first compound 0.08 µM, partner dose 0.04 µM) | 78.2 | 77.1 | 59.3 | 225 | 252 | 23.4 | 59.2 | 317 | 101 | 81.7 | 102 | 74.1 | 156 | 58.5
15 | Nc1ncn([C@H]2C[C@H](O)[C@@H](CO)O2)c(=O)n1 [decitabine] + Cn1c(Nc2ccc(C(F)(F)F)cc2)nc2cc(Oc3ccnc(-c4ncc(C(F)(F)F)[nH]4)c3)ccc21 [CHIR265] (first compound 0.1 µM, partner dose 0.08 µM) | 55.8 | 233 | 157 | 320 | 150 | 106 | 155 | 373 | 919 | 120 | 125 | 258 | 111 | 51.1
